Data as given in PubChem BioAssay AID1259254 (NCATS, 2017)

Test: 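Finding genes that stop cells copying their DNA twice in one cycle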 (primary screen)
System: human HCT116 colorectal cancer cells
Knock-down reagent: single siRNA against human genes
Duration: 3 days
Read-out: 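Imaged Hoechst DNA stain sorts each cell into a cycle phase by DNA amount; per plate, G2 fraction set to 0% for non-targeting and 100% for GMNN siRNA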
Direction: G2 robust z-score and G2 cells, % of GMNN control: higher = more G2 cells, more excess DNA replication
Hit rule: 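Active siRNAs have a G2 robust z of 5 or more median absolute deviations over the median, which in these data means about 38% or higher of GMNN control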
Here is an unselected part of about 59,000 reagents tested. Over the whole deposit, about 1,550 (2.6%) were called active. 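G2 share is only a proxy for re-replication; each gene was hit by three separate siRNAs, and active genes were retested.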 The numbers tell different reagents against one gene apart. Further read-outs or replicates are left out here. Not stated in the record: the amount of reagent.

gene knocked down	reagent no.	G2 robust z-score	G2 cells, % of GMNN control	Call
FRMD1 (FERM domain containing 1)	1	0.569	6.97	inactive
FRMD1 (FERM domain containing 1)	2	1.05	10.3	inactive
FRMD1 (FERM domain containing 1)	3	0.59	7.12	inactive
TUBA8 (tubulin alpha 8)	1	9.28	68.3	active
TUBA8 (tubulin alpha 8)	2	0.976	9.83	inactive
TUBA8 (tubulin alpha 8)	3	-0.777	-2.5	inactive
MRPL35 (mitochondrial ribosomal protein L35)	1	-1.01	-4.16	inactive
MRPL35 (mitochondrial ribosomal protein L35)	2	-0.922	-3.52	inactive
MRPL35 (mitochondrial ribosomal protein L35)	3	6.9	51.5	active
CS (citrate synthase)	1	-1.01	-4.16	inactive
CS (citrate synthase)	2	-0.125	2.09	inactive
CS (citrate synthase)	3	-1.27	-5.95	inactive
GABRB1 (gamma-aminobutyric acid type A receptor subunit beta1)	1	3.89	30.4	inactive
GABRB1 (gamma-aminobutyric acid type A receptor subunit beta1)	2	-0.537	-0.809	inactive
GABRB1 (gamma-aminobutyric acid type A receptor subunit beta1)	3	1.43	13	inactive
INTS1 (integrator complex subunit 1)	1	1.32	12.2	inactive
INTS1 (integrator complex subunit 1)	2	-0.593	-1.2	inactive
INTS1 (integrator complex subunit 1)	3	-0.271	1.06	inactive
FLNA (filamin A)	1	-0.135	2.02	inactive
FLNA (filamin A)	2	-1.16	-5.18	inactive
FLNA (filamin A)	3	0.852	8.96	inactive
DERL3 (derlin 3)	1	0.772	8.4	inactive
DERL3 (derlin 3)	2	6.23	46.8	active
DERL3 (derlin 3)	3	0.358	5.49	inactive
ZNF565 (zinc finger protein 565)	1	1.42	13	inactive
ZNF565 (zinc finger protein 565)	2	-0.564	-1	inactive
ZNF565 (zinc finger protein 565)	3	2.61	21.3	inactive
MAPK3 (mitogen-activated protein kinase 3)	1	5.01	38.2	active
MAPK3 (mitogen-activated protein kinase 3)	2	2.26	18.9	inactive
MAPK3 (mitogen-activated protein kinase 3)	3	-0.374	0.337	inactive
CCNK (cyclin K)	1	2.58	21.1	inactive
CCNK (cyclin K)	2	-0.525	-0.725	inactive
CCNK (cyclin K)	3	-1.09	-4.7	inactive
MED8 (mediator complex subunit 8)	1	1.05	10.3	inactive
MED8 (mediator complex subunit 8)	2	1.03	10.2	inactive
MED8 (mediator complex subunit 8)	3	-0.893	-3.32	inactive
MTMR8 (myotubularin related protein 8)	1	-0.998	-4.06	inactive
MTMR8 (myotubularin related protein 8)	2	3.18	25.4	inactive
MTMR8 (myotubularin related protein 8)	3	4.36	33.7	inactive
FAM20A (FAM20A golgi associated secretory pathway pseudokinase)	1	-0.809	-2.72	inactive
FAM20A (FAM20A golgi associated secretory pathway pseudokinase)	2	-0.189	1.64	inactive
FAM20A (FAM20A golgi associated secretory pathway pseudokinase)	3	0.618	7.32	inactive
CYP51A1 (cytochrome P450 family 51 subfamily A member 1)	1	0.318	5.21	inactive
CYP51A1 (cytochrome P450 family 51 subfamily A member 1)	2	5.09	38.7	active
CYP51A1 (cytochrome P450 family 51 subfamily A member 1)	3	4.12	32	inactive
OR10P1 (olfactory receptor family 10 subfamily P member 1)	1	0.357	5.48	inactive
OR10P1 (olfactory receptor family 10 subfamily P member 1)	2	0.0314	3.19	inactive
OR10P1 (olfactory receptor family 10 subfamily P member 1)	3	3.39	26.9	inactive
CAMP (cathelicidin antimicrobial peptide)	1	-0.573	-1.06	inactive
CAMP (cathelicidin antimicrobial peptide)	2	0.565	6.94	inactive
CAMP (cathelicidin antimicrobial peptide)	3	6.12	46	active
PTGS1 (prostaglandin-endoperoxide synthase 1)	1	-0.577	-1.09	inactive
PTGS1 (prostaglandin-endoperoxide synthase 1)	2	-0.524	-0.722	inactive
PTGS1 (prostaglandin-endoperoxide synthase 1)	3	-0.326	0.677	inactive
DLGAP4 (DLG associated protein 4)	1	-0.308	0.798	inactive
DLGAP4 (DLG associated protein 4)	2	1.02	10.2	inactive
DLGAP4 (DLG associated protein 4)	3	3.86	30.1	inactive
TCF7 (transcription factor 7)	1	0.828	8.79	inactive
TCF7 (transcription factor 7)	2	-0.289	0.937	inactive
TCF7 (transcription factor 7)	3	-1.24	-5.76	inactive
TCEAL6 (transcription elongation factor A like 6)	1	1.85	16	inactive
TCEAL6 (transcription elongation factor A like 6)	2	-0.0677	2.49	inactive
TCEAL6 (transcription elongation factor A like 6)	3	-0.0986	2.27	inactive
SEZ6L (seizure related 6 homolog like)	1	0.253	4.74	inactive
SEZ6L (seizure related 6 homolog like)	2	5.84	44	active
SEZ6L (seizure related 6 homolog like)	3	-0.793	-2.61	inactive
SALL3 (spalt like transcription factor 3)	1	0.941	9.59	inactive
SALL3 (spalt like transcription factor 3)	2	0.335	5.32	inactive
SALL3 (spalt like transcription factor 3)	3	0.762	8.33	inactive

A stretch from the list above, for reference:
gene knocked down	reagent no.	G2 robust z-score	G2 cells, % of GMNN control	Call
MRPL35 (mitochondrial ribosomal protein L35)	1	-1.01	-4.16	inactive
MRPL35 (mitochondrial ribosomal protein L35)	2	-0.922	-3.52	inactive
MRPL35 (mitochondrial ribosomal protein L35)	3	6.9	51.5	active
CS (citrate synthase)	1	-1.01	-4.16	inactive
CS (citrate synthase)	2	-0.125	2.09	inactive
CS (citrate synthase)	3	-1.27	-5.95	inactive
GABRB1 (gamma-aminobutyric acid type A receptor subunit beta1)	1	3.89	30.4	inactive
GABRB1 (gamma-aminobutyric acid type A receptor subunit beta1)	2	-0.537	-0.809	inactive
GABRB1 (gamma-aminobutyric acid type A receptor subunit beta1)	3	1.43	13	inactive
INTS1 (integrator complex subunit 1)	1	1.32	12.2	inactive
